PubChem BioAssay AID504791, Drosophila RNAi Screening Center | 2011
Purpose: 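Genes of the fly required for silencing by miRNA, siRNA or endo-siRNA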 (primary screen). System: Drosophila S2-derived reporter cells. Knock-down reagent: long dsRNA against Drosophila genes, about 150-250 ng dsRNA per well (siRNA assay); about 80-120 ng (miRNA assay). Time to read-out: about 5 days (siRNA assay); about 4 days (miRNA assay). Conditions: copper sulfate induction of reporters: 25 µM (siRNA assay); 200 mM stated (miRNA assay), 1-2 days before reading. Measured: 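Per-well ratio of Renilla over firefly light, expressed relative to that plate's average ratio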. Units: stable assay Renilla, run 1 in luminescence; stable assay firefly, run 1 in luminescence. Active means: 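a well was a first-pass pick when its plate-scaled ratio rose above 1.5 (siRNA assay) or 1.6 (miRNA assay), or dropped below 0.6; a gene counted only if two separate dsRNAs agreed on retest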.
The screen tested about 23,000 reagents; this is a random part of those with a known target gene and a result. In the full data, 199 (0.86%) are marked active. 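Plate-scaled ratios behind the calls are not deposited; printed light signals are raw; many rows marked increased or decreased are still called inactive.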 Entries without a mark were called inactive. The numbers tell different reagents against one gene apart. The record does not give: the direction of the score.

CG12377 (retired record) #1 → stable assay Renilla, run 1: 7740; stable assay firefly, run 1: 5.39e5
CG12377 (retired record) #2 → stable assay Renilla, run 1: 8098; stable assay firefly, run 1: 4.01e5
CG5039 → stable assay Renilla, run 1: 6632; stable assay firefly, run 1: 2.93e5
Pvr → miRNA reporter change: reporter ratio lowered past the hit cutoff; stable assay Renilla, run 1: 63197; stable assay firefly, run 1: 4.74e5
Pdcd4 → stable assay Renilla, run 1: 5638; stable assay firefly, run 1: 5.73e5
CG13784 #1 → stable assay Renilla, run 1: 4879; stable assay firefly, run 1: 5.15e5
CG13784 #2 → stable assay Renilla, run 1: 7601; stable assay firefly, run 1: 3.29e5
Cyp4c3 → stable assay Renilla, run 1: 6615; stable assay firefly, run 1: 3.69e5
CG9451 → stable assay Renilla, run 1: 6034; stable assay firefly, run 1: 3.34e5
CG32816 → stable assay Renilla, run 1: 7707; stable assay firefly, run 1: 3.63e5
CG7246 → stable assay Renilla, run 1: 4491; stable assay firefly, run 1: 4.77e5
ocn → stable assay Renilla, run 1: 6694; stable assay firefly, run 1: 5.20e5
CG17687 → stable assay Renilla, run 1: 4867; stable assay firefly, run 1: 2.55e5
CG8578 → stable assay Renilla, run 1: 7164; stable assay firefly, run 1: 4.57e5
Ddx1 → stable assay Renilla, run 1: 9711; stable assay firefly, run 1: 3.49e5
ine → stable assay Renilla, run 1: 11973; stable assay firefly, run 1: 6.56e5
CG10725 → stable assay Renilla, run 1: 9888; stable assay firefly, run 1: 5.63e5
eIF3b → stable assay Renilla, run 1: 4431; stable assay firefly, run 1: 3.16e5
Alk #1 → stable assay Renilla, run 1: 4487; stable assay firefly, run 1: 3.83e5
Alk #2 → stable assay Renilla, run 1: 3579; stable assay firefly, run 1: 2.71e5

Part of the list above, reformatted:
| predicted target | reagent | miRNA reporter change | stable assay Renilla, run 1 | stable assay firefly, run 1 |
| --- | --- | --- | --- | --- |
| ine | 1 | – | 11973 | 6.56e5 |
| CG10725 | 1 | – | 9888 | 5.63e5 |
